Measurements from the supplement of paper PMC12889115.
The list shows a part of the results. Values are raw readings; no control value is given beside them.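 Primary screen: polymyxin B was added at a level permeabilizing Salmonella outer membranes while sparing inner membranes. DMSO wells, both with and without polymyxin B, established maximum growth. Plate-to-plate variation meant each plate was ranked on its own, and the lowest-OD600 compounds were selected as hits.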

Tested on: Salmonella enterica serovar Typhimurium SL1344
Assay: bacterial growth OD600 after 18 h with compound and polymyxin B; higher = more bacterial growth (less inhibition)
Conditions: 50 µM, Mueller-Hinton broth

| Compound | bacterial growth OD600 (polymyxin B 0.75 µg/mL) | bacterial growth OD600 (polymyxin B 1 µg/mL) |
| --- | --- | --- |
| CCC(=O)N[C@@H]1c2ccccc2C2(CCN(C(=O)c3cccc(C)c3)CC2)[C@H]1OCc1cccnc1 | 0.805 |  |
| COc1cccc(CCC(=O)N2CCCC(c3nc(-c4cccnc4)ncc3-c3ccccc3F)C2)c1 (configuration not stated) | 0.054 |  |
| O=C(NCC1Cc2cccc(-c3ncccn3)c2O1)c1ccccn1 (configuration not stated) | 0.842 |  |
| O=C(/C=C/c1ccccc1)N1CCC(C2(c3ccccn3)NC(=O)N(CC3CCCO3)C2=O)CC1 (configuration not stated) | 0.781 |  |
| Cc1cccc(-c2ccccc2C(=O)N2CC[C@@H](N3CCN(C)CC3)[C@H](O)C2)c1 |  | 1 |
| COc1ccc(OC)c(NC(=O)N(C)CC2CCCN(CCc3ccccc3OC)C2)c1 (configuration not stated) |  | 1.12 |
| Cc1ccc(-c2n[nH]cc2CN(Cc2nccn2C)C(C)C)cc1C |  | 1.34 |
| COc1cccc(-c2nc3ccc(C(=O)N(C)Cc4ccc(C)o4)cc3o2)c1 |  | 0.707 |
| CC(CCn1cccn1)Nc1ccc(-c2nc(C3CC3)no2)cn1 (configuration not stated) |  | 1.03 |
| Cc1cccc(NC(=O)CCC2CCN(S(=O)(=O)N(C)C)CC2)c1 |  | 0.91 |
| CCOC(=O)C1(Cc2ccc(Cl)cc2)CCN(Cc2cc(C(C)C)[nH]n2)CC1 |  | 0.79 |
| COc1cccc(CCC2CCCN(C(=O)c3cccc4nccnc34)C2)c1 (configuration not stated) | 0.771 |  |
| Cn1cc(CN(CCN2CCCCC2)CC2CCCN(C3CCCC3)C2)cn1 (configuration not stated) | 0.866 |  |
| COCC1CCCN(C(=O)c2cc(Cn3ccc4ccccc43)[nH]n2)C1 (configuration not stated) | 0.975 |  |
| Cc1nn(C)cc1CNC(C)c1cnn(-c2cccc3ccccc23)c1C (configuration not stated) | 0.833 |  |
| CC(C)S(=O)(=O)N1C[C@H]2OC(=O)N(CCc3ccc(F)cc3)[C@H]2C1 | 0.875 |  |

| Compound | bacterial growth OD600 (polymyxin B 0.75 µg/mL) | bacterial growth OD600 (polymyxin B 1 µg/mL) |
| --- | --- | --- |
| CCOC(=O)C1CCCN(C(=O)c2oc3ccc(C)cc3c2C)C1 (configuration not stated) | 0.005 |  |
| O=C(NCCc1cn2cccnc2n1)c1coc(COc2cccc(F)c2F)n1 | 0.812 |  |
| COCc1ccc(CN(C)CC2CCCN(CCc3ccccc3OC)C2)o1 (configuration not stated) |  | 0.956 |
| COc1ccc(-c2cc(C(=O)NC3CCCN(Cc4ccccn4)C3)[nH]n2)cc1 (configuration not stated) | 0.728 |  |
| CCC1(C2CCN(C(=O)Cc3ccc(OC)cc3)CC2)NC(=O)N(Cc2ccc3c(c2)OCO3)C1=O (configuration not stated) | 0.809 |  |
| O=C(c1cc(COc2ccc3c(c2)OCO3)[nH]n1)N1CCN2CCCC2C1 (configuration not stated) |  | 0.876 |
| C=CCC(O)(CC=C)CNC(=O)CCC1(Cc2ccc(Cl)cc2)CCC(=O)N1 (configuration not stated) | 0.827 |  |
| O=C(c1cn(Cc2ccccc2F)nn1)N1CCC(OCc2ccccn2)CC1 |  | 0.913 |
| FC(F)(F)CCCN1CCC(C2CCN(c3ncccn3)CC2)C1 (configuration not stated) | 0.697 |  |
| O=C(c1ccc(F)cc1F)N1CCCC(Nc2ccc(F)cc2)C1 (configuration not stated) |  | 0.851 |
| CN(C)C1CCN(c2ccc(-c3nc(COc4ccccc4)no3)cn2)C1 (configuration not stated) |  | 0.902 |
| CN(C)CCN1C(=O)NC(Cc2cccc(F)c2)(C2CCN(C(=O)CCC3CCCC3)CC2)C1=O (configuration not stated) | 0.775 |  |
| O=C1N(Cc2cccc(F)c2F)CCCC1(O)CN1CCCOCC1 (configuration not stated) |  | 0.914 |
| COC(=O)CCNC(=O)CC(c1ccccc1)c1ccccc1F (configuration not stated) | 0.708 |  |
| CCN(CC)CC(O)COc1cc(CNCc2cc(F)ccc2C)ccc1OC (configuration not stated) |  | 1.05 |
| O=C(c1cn(C2CCCCCC2)nn1)N1CCCC1c1ccc(F)cc1 (configuration not stated) |  | 0.605 |

Quoted at random: 2 compounds from above, in no set order.

| Compound | bacterial growth OD600 (polymyxin B 0.75 µg/mL) | bacterial growth OD600 (polymyxin B 1 µg/mL) |
| --- | --- | --- |
| COC(=O)CCNC(=O)CC(c1ccccc1)c1ccccc1F (configuration not stated) | 0.708 |  |
| CCN(CC)CC(O)COc1cc(CNCc2cc(F)ccc2C)ccc1OC (configuration not stated) |  | 1.05 |
